Assay results: paper doi:10.1101/672576
Read-outs that look alike come from different tables or passages of the source. No constants are given. Whether binding was seen depends on the method and setting. Some results given as binding are weak or reduced against the parent protein; the word gives no strength. Tags and fused reporters may be left off the sequences shown.

Amino acid sequences for entries named in this document (tags omitted). A change or cut given only in a name is not applied to a line headed by its entry.
UniProt P30153: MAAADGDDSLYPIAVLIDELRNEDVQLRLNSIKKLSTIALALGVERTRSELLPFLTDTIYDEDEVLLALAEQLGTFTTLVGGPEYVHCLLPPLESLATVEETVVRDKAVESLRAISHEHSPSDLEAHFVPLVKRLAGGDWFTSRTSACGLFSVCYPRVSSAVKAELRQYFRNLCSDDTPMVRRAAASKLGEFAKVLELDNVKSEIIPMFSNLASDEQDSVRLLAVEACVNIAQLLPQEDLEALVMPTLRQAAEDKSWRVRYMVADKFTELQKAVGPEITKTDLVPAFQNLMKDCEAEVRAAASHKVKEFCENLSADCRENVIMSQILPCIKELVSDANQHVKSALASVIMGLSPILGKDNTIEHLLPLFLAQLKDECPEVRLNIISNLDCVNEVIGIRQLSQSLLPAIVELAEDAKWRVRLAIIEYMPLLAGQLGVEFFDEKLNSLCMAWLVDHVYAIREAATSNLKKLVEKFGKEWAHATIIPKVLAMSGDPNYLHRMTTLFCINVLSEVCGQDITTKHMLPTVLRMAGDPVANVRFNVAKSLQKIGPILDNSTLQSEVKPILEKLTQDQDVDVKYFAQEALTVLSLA

Assays:
[1] = biological target: GST-tagged PP2A core enzyme (Aα-Cα heterodimer) (UniProt P30153); test: pull-down
[2] = biological target: GST-tagged PP2A core enzyme (Aα-Cα heterodimer) (UniProt P30153); test: pull-down; remark: listed apart in the source

B1: PR70 subunit (purified, GST pull-down) (protein, UniProt Q9Y5P8 1-575)
chain: MPPGKVLQPVLKMKVDELFLYWLSEASTQRMLQDCLRRIKAPGRDQPTPGDGEQPGAWPTAPLAAPRPSGLEPPGTPGPGPALPLGAASSPRNAPHVRGTRRSAGTRVVQTRKEEPLPPATSQSIPTFYFPRGRPQDSVNVDAVISKIESTFARFPHERATMDDMGLVAKACGCPLYWKGPLFYGAGGERTGSVSVHKFVAMWRKILQNCHDDAAKFVHLLMSPGCNYLVQEDFVPFLQDVVNTHPGLSFLKEASEFHSRYITTVIQRIFYAVNRSWSGRITCAELRRSSFLQNVALLEEEADINQLTEFFSYEHFYVIYCKFWELDTDHDLLIDADDLARHNDHALSTKMIDRIFSGAVTRGRKVQKEGKISYADFVWFLISEEDKKTPTSIEYWFRCMDLDGDGALSMFELEYFYEEQCRRLDSMAIEALPFQDCLCQMLDLVKPRTEGKITLQDLKRCKLANVFFDTFFNIEKYLDHEQKEQISLLRDGDSGGPELSDWEKYAAEEYDILVAEETAGEPWEDGFEAELSPVEQKLSALRSPLAQRPFFEAPSPLGAVDLYEYACGDEDLEPL
binding [1]: binds
binding [2]: binds
